PubChem BioAssay AID602196 | INSERM, 2012
This is a random part of about 23,000 reagents. Over the whole deposit, 455 (2%) are marked active. 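Active includes both protection and sensitisation; some change values fall well beyond the stated -50 to +50 range.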 Unmarked entries are inactive. Not given: the amount of reagent.

Purpose: 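Modifiers of cisplatin sensitivity in A549 cells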
Cells: human A549 lung cancer cells
Reagent: siRNA pair against human genes
Timing: 48 h transfection before cisplatin; time from cisplatin to read-out not stated
Challenge: cisplatin at a dose killing half of control-siRNA cells; exact dose and duration not given
Measurement: 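Cisplatin cell death as a shift from the 50% death seen with control siRNA; siRNAs toxic or growth-blocking alone scored 0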
Direction: two-siRNA summed score (-2 to +2): higher = both siRNAs protect from cisplatin killing; -2 means both sensitise; mean protection from cisplatin (shift in death) and protection from cisplatin (shift in death), siRNA C and protection from cisplatin (shift in death), siRNA D: higher = protection from cisplatin killing
Rule for the call: 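Each siRNA scores 0 if harmful alone by LDH or WST-1, otherwise +1 if it reduces and -1 if it increases cisplatin killing; a gene is active when both siRNAs agree (sum +2 or -2)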
Calls: active = both siRNAs shift cisplatin killing the same way; inactive = no consistent shift, or siRNA harmful alone

target gene,two-siRNA summed score (-2 to +2),mean protection from cisplatin (shift in death) (%),"protection from cisplatin (shift in death), siRNA C (%)","protection from cisplatin (shift in death), siRNA D (%)"
UGT2B17 (UDP glucuronosyltransferase family 2 member B17),1,9.2,8.4,10
LAMC2 (laminin subunit gamma 2),0,4,-1.6,9.7
FAM74A4 (family with sequence similarity 74 member A4),0,2.8,7.7,-2
LGALS3BP (galectin 3 binding protein),0,-4.7,8.6,-17.9
CLDN17 (claudin 17),0,-8.6,-4.5,-12.7
TTC5 (tetratricopeptide repeat domain 5),0,3.1,4.8,1.3
TMED10 (transmembrane p24 trafficking protein 10),0,5.3,11.1,-0.6
LOC402036 (retired record),0,2.5,-13.2,18.3
TMC4 (transmembrane channel like 4),0,22.4,38.5,6.4
CUL9 (cullin 9),0,-16.6,-23.7,-9.5
TSSK1B (testis specific serine kinase 1B),1,11.3,15.1,7.6
ADRB3 (adrenoceptor beta 3),0,-1.3,1.9,-4.6

Reprinted from the entries so far, 2 entries:
target gene,two-siRNA summed score (-2 to +2),mean protection from cisplatin (shift in death) (%),"protection from cisplatin (shift in death), siRNA C (%)","protection from cisplatin (shift in death), siRNA D (%)"
FAM74A4 (family with sequence similarity 74 member A4),0,2.8,7.7,-2
LGALS3BP (galectin 3 binding protein),0,-4.7,8.6,-17.9

Further entries follow.
target gene,two-siRNA summed score (-2 to +2),mean protection from cisplatin (shift in death) (%),"protection from cisplatin (shift in death), siRNA C (%)","protection from cisplatin (shift in death), siRNA D (%)"
CTU1 (cytosolic thiouridylase subunit 1),0,1.8,3.2,0.3
ZNF609 (zinc finger protein 609),0,-5.2,-6,-4.4
CELA2A (chymotrypsin like elastase 2A),0,-14.1,-4.5,-23.7
LOC391137,0,8.6,6.7,10.5
UGT1A5 (UDP glucuronosyltransferase family 1 member A5),0,4.6,3.5,5.7
ATP5F1D (ATP synthase F1 subunit delta),1,17.4,24.9,10
LOC400879 (retired record),0,7.1,18.2,-3.9
KIAA1447,0,2.1,5.7,-1.4
TAB2 (TGF-beta activated kinase 1 (MAP3K7) binding protein 2),1,7.6,-2.5,17.6
PRPF18 (pre-mRNA processing factor 18),0,-10.1,-9.6,-10.5
MAP3K11 (mitogen-activated protein kinase kinase kinase 11),1,16.1,14.1,18.1
